# For at least one compound, name, drawing or mass did not settle the structure.
# System: skeletal muscle
# Experiment: Western blot of rat skeletal muscle proteins
# Assay type: in vivo, Sprague-Dawley rats
# Settings: LTE rats; 25 mg/kg/day, 8 weeks
smiles,measurement,value
"OCCc1ccc(O)c(O)c1 [hydroxytyrosol, 3,4-dihydroxyphenylethanol]",LTE-induced LC3 protein,efficiently eliminated
